Laboratory results as given in paper doi:10.1101/2021.04.04.438383 (bioRxiv, 2021).
Read-outs that look alike come from different tables or passages of the source. These are yes or no findings as the source states them, for the method shown. In cells and extracts the contact can be indirect. Some results given as binding are weak or reduced against the parent protein; the word gives no strength. For part of these data: Where a sequence is shown, tags or fusion partners need not be part of it. Values belong to the molecule of their own block, whether it stands above or below them.

By UniProt entry, the sequences of proteins in these tests, tags left out.
UniProt P83510: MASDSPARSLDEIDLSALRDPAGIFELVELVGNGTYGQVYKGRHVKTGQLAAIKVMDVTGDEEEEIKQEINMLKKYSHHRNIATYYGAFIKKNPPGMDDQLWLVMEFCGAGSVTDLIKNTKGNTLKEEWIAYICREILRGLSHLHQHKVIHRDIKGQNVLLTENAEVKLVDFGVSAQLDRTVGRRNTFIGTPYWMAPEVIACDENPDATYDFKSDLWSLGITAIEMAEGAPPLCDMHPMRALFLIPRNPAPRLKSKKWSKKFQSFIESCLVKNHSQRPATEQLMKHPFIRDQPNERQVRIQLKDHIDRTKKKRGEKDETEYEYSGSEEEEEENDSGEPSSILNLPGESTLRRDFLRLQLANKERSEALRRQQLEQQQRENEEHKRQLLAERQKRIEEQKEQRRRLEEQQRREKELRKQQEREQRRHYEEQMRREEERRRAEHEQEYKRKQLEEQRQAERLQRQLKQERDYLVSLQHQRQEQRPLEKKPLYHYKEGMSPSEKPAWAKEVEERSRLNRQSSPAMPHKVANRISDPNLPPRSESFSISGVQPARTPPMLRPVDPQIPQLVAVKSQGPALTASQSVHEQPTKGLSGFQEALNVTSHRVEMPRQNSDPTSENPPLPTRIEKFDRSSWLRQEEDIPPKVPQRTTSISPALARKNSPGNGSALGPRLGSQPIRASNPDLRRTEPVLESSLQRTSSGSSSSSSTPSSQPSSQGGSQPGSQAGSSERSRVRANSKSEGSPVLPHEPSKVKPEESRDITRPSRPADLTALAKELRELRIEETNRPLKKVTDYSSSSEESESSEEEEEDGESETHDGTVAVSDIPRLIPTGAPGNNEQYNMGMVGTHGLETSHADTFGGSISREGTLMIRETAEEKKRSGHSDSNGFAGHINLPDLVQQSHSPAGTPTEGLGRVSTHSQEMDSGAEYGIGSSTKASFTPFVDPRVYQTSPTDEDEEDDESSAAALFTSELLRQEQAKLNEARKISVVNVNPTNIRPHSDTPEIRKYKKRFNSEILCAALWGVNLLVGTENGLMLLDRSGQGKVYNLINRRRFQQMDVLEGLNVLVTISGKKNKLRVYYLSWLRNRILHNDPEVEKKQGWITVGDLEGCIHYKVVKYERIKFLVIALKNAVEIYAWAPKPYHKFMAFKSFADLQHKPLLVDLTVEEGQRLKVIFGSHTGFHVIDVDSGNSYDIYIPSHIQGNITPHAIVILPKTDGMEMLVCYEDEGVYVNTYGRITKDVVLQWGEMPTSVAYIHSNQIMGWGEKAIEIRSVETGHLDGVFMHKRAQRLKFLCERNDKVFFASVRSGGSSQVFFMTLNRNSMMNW

Assays:
Test in all cases: co-IP
[1] = target: TNIK (Traf2 and Nck interacting kinase), endogenous (mouse (endogenous in Neuro2a)) (UniProt P83510)
[2] = target: T1, wild-type (WT) Arc-Myc-FLAG (mouse Activity-regulated cytoskeleton-associated protein) (mouse) (UniProt Q9WV31)
T1 sequence: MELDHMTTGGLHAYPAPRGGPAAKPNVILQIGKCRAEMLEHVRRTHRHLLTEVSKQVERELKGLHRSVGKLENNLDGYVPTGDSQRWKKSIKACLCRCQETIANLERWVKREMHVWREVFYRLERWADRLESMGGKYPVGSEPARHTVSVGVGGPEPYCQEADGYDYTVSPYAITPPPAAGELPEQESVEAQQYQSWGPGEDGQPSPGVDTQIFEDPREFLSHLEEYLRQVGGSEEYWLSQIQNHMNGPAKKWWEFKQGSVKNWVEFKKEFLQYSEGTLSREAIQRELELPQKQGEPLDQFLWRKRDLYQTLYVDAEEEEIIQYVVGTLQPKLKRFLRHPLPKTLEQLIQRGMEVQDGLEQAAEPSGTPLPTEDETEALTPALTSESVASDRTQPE

[3] = target: T1, wild-type (WT) Arc-Myc-FLAG (mouse Activity-regulated cytoskeleton-associated protein) (mouse); remark: listed apart in the source

binding [1]: binds
Molecule: wild-type (WT) Arc-Myc-FLAG (mouse Activity-regulated cytoskeleton-associated protein) (from UniProt Q9WV31 1-396)

binding [2]: binds
Molecule: TNIK (Traf2 and Nck interacting kinase), endogenous (from UniProt P83510 1-1323) (enzyme)

binding [3]: binds
B1: drebrin, endogenous (protein, UniProt Q9QXS6 1-706)
chain: MAGVSFSGHRLELLAAYEEVIREESAADWALYTYEDGSDDLKLAASGEGGLQELSGHFENQKVMYGFCSVKDSQAALPKYVLINWVGEDVPDARKCACASHVAKVAEFFQGVDVIVNASSVEDIDAGAIGQRLSNGLARLSSPVLHRLRLREDENAEPVGTTYQKTDAAVEMKRINREQFWEQAKKEEELRKEEERKKALDARLRFEQERMEQERQEQEERERRYREREQQIEEHRRKQQSLEAEEAKRRLKEQSIFGDQRDEEEESQMKKSESEVEEAAAIIAQRPDNPREFFRQQERVASASGGSCDAPAPAPFNHRPGRPYCPFIKASDSGPSSSSSSSSSPPRTPFPYITCHRTPNLSSSLPCSHLDSHRRMAPTPIPTRSPSDSSTASTPIAEQIERALDEVTSSQPPPPPPPPPPTQEAQETTPSLDEELSKEAKVTAAPEVWAGCAAEPPQAQEPPLLQSSPLEDSMCTESPEQAALAAPAEPAASVTSVADVHAADTIETTTATTDTTIANNVTPAAASLIDLWPGNGEEASTLQAEPRVPTPPSGAEASLAEVPLLNEAAQEPLPPVGEGCANLLNFDELPEPPATFCDPEEEVGETLAASQVLTMPSALEEVDQVLEQELEPEPHLLTNGETTQKEGTQASEGYFSQSQEEEFAQSEEPCAKVPPPVFYNKPPEIDITCWDADPVPEEEEGFEGGD
